Test results taken from patent US20050064558.
Construct, isoform or probe ends are uncertain for at least one entry. At least one result comes from cells or an extract, where the contact may be indirect.

The chains behind the UniProt entries cited, without tags or fusion partners. Residues count along the entry.
UniProt P40763, 2-770: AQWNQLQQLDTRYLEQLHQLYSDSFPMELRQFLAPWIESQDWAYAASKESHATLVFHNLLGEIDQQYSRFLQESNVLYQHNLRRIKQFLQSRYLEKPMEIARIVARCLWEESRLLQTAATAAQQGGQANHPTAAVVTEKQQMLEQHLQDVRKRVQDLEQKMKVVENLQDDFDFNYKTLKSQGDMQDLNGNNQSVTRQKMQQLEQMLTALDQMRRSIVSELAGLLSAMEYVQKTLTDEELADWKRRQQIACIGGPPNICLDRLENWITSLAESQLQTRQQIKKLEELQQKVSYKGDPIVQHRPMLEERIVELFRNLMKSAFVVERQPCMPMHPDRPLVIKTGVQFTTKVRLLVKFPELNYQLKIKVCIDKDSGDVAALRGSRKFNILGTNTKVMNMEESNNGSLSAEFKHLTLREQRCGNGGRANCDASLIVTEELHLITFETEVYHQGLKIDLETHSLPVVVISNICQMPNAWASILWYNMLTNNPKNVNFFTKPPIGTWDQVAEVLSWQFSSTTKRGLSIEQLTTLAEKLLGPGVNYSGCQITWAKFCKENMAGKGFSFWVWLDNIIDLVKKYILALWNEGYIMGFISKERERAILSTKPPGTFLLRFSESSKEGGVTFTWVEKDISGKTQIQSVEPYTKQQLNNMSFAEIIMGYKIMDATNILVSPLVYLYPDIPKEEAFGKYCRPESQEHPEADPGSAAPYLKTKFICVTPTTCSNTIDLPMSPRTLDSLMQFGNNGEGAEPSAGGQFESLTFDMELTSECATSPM

Columns and labels:
[1] = target: STAT-3 (Homo sapiens) (UniProt P40763); assay: EMSA; conditions: HPMC nuclear extract; both sIL-6R isoforms with IL-6 activate STAT-3; no supershift; protein in an extract; label: 32P (dTTP Klenow fill-in)
[2] = tested on: C/EBP (NF-IL-6 + family member not distinguished) (Homo sapiens); assay: EMSA; conditions: HPMC nuclear extract; DS-sIL-6R + IL-6 enhances binding; family member not identified; protein in an extract; label: 32P (dTTP Klenow fill-in)

| Sequence | binding result [1] | binding result [2] |
| --- | --- | --- |
| CGACATTTCCCGTAAATCG / CGACGATTTACGGGAAATG [STAT-3 SIE-m67 oligonucleotide] | binds |  |
| GACGTCACATTGCACAATCTTAA / TATTAAGATTGTGCAATGTGACG [C/EBP consensus oligonucleotide] |  | binds |
